# Test system: TRB3
# Assay: Suppressive effects of amino acids on TRB3 expression in cultured hepatocytes (Fao cells, quantitative PCR)
# Type: cell-based, rat
# Conditions: other experiments
# Method: Suppressive effects of twenty-two amino acids on TRB3 expression in rat hepatic cancer-derived Fao cells were examined.
# The standard medium is a medium corresponding to the minus amino acid medium, except for further containing amino acids listed in Table 2.
# RNAs were extracted from the cultured cells, the expression levels of TRB3 gene were determined through quantitative polymerase chain reaction (PCR), and the suppressive effects of amino acids on TRB3 expression were determined and compared with data of TRB3 expression induced upon amino acid starvation. The gene expression was corrected with reference to β-actin expression level. The correction was carried out in the same manner in the after-mentioned genes.
# The data were corrected and expressed while taking the average of TRB3 mRNA levels after three-hour cultivation in the minus amino acid medium as 1.00.
smiles,measurement,setting,value
"NCCC[C@H](N)C(=O)O [ornithine, reference compound]",suppressive effect on TRB3 expression compared with L-aspartic acid,0.03 to 0.06 mM,less suppressive effect than that of L-aspartic acid
same,suppressive effect on TRB3 expression compared with L-aspartic acid,0.3 to 1 mM,suppressive effect equivalent to that of L-aspartic acid

# Reference: patent publication US20080038321A1, “PROPHYLACTIC/THERAPEUTIC COMPOSITIONS FOR LIVER DISEASES” (Ajinomoto Co., Inc., priority 2004, published 2008)
